Drawing on publication PMC3894558, “Chemical signatures and new drug targets for gametocytocidal drug development” (Scientific Reports, 2014), this text covers IC50 for 5 molecules.

Assay [1] deals with P. falciparum HB3 gametocytes. As to the kind of experiment: alamarBlue gametocyte viability assay, strain HB3. In kind it is cell-based. Conditions: Plasmodium falciparum, HB3, strain profiling; 11 concentrations, 1:3 dilution, three times. On the technique in general: Alamar Blue is a resazurin reagent that responds to reducing activity.
In assay [2] the test system is P. falciparum Dd2 gametocytes. As to the kind of experiment: alamarBlue gametocyte viability assay, strain Dd2. In kind it is cell-based. Conditions: Plasmodium falciparum, DD2, strain profiling; 11 concentrations, 1:3 dilution, three times.
The subject of assay [3] is P. falciparum 3D7 gametocytes. As to the kind of experiment: alamarBlue gametocyte viability assay, strain 3D7. It is filed as cell-based, Plasmodium falciparum.
Setting [4] is: SI Table 3, structure clusters, read-out: Activity against gametocytes IC50.

Structures can show the parent of a compound that is named as a salt. Where two headings read alike, the source gives them in different places.

For `Clc1ccccc1C(c1ccccc1)(c1ccccc1)n1ccnc1` [Clotrimazole], the IC50 – broadly, the concentration needed to halve the response being measured – in assay [1] was 1.48 µM; in assay [2], 1.48 µM; in assay [3] (Plasmodium falciparum, 3D7, strain profiling, 11 concentrations, 1:3 dilution, three times, read-out: 3D7-gametocytes IC50), 1.87 µM. Consider `CN(C)CCCN1c2ccccc2CCc2ccc(Cl)cc21` [Clomipramine], for which, in assay [3] (setting [4]), the IC50 is 35.5 µM. Still for that read-out and setting: in the case of `CN(C)CCCN1c2ccccc2CCc2ccc(Cl)cc21` [Clomipramine hydrochloride] it was 3.55 µM. On to `CN1CCC(=C2c3ccccc3C=Cc3ccccc32)CC1` [Cyproheptadine, reference compound], for which the IC50 in assay [3] (SI Table 3, structure clusters) was 35.5 µM.

`CN1CCC(=C2c3ccccc3C=Cc3ccccc32)CC1` [Cyproheptadine hydrochloride, reference compound]: the IC50 in assay [3] (SI Table 3, structure clusters) was 3.55 µM.
